# Percent effect of library compounds

By UniProt entry, the sequences of proteins in these tests, tags left out. Residues count along the entry.
UniProt Q4DA54, 1-478: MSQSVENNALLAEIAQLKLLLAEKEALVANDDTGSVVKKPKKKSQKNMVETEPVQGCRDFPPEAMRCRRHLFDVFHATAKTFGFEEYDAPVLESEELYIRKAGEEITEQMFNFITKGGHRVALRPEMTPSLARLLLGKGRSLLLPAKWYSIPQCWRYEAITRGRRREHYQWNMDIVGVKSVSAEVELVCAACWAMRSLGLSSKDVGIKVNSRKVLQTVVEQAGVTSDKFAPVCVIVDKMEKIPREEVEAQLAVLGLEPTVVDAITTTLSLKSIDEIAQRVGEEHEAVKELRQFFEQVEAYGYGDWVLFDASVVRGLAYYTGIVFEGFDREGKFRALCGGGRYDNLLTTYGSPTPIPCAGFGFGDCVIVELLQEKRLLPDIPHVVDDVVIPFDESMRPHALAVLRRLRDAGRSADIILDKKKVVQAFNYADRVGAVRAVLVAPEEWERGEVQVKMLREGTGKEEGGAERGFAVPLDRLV
UniProt P9WNZ1, whole entry: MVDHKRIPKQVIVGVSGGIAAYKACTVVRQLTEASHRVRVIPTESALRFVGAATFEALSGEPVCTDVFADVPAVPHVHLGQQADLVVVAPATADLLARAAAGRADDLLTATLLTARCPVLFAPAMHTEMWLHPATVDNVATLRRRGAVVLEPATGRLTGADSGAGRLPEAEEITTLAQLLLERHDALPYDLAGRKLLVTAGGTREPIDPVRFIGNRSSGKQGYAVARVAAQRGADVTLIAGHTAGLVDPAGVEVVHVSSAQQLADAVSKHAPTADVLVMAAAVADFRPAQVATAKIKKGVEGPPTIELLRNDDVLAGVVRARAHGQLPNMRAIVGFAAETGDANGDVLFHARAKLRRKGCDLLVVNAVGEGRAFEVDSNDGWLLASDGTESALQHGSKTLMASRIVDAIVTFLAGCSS

The values are deposited in ChEMBL (CHEMBL3988442, “University of Dundee, Small-Polar-MMV Screening Library” (2021)).

TcHisRS: 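Enzyme assay of histidyl-tRNA synthetase; the read-out is not stated. Target: Histidine-tRNA ligase, Trypanosoma cruzi CL Brener (UniProt Q4DA54). Compounds at 30 µM. Direction is inferred from retests: higher values go with stronger inhibition. Of about 69,000 compounds tested this way, about 31 (0.045%) reached 50% or more in at least one test.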
CoaBC: 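Enzyme assay of CoaBC with a phosphate dye (Biomol Green) read at 650 nm. Target: Coenzyme A biosynthesis protein CoaBC, Mycobacterium tuberculosis (UniProt P9WNZ1). Tested at 30 µM. Direction is inferred from only a few compounds that gave an IC50; most scored high, so higher reads as stronger inhibition. Most strong results did not repeat in a second test. About 67,000 compounds were tested under these conditions; 0.06% (about 40) showed 50% or more at least once.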

Each number is a percent effect as filed. The record does not define 0% and 100%; most values in the screen are far below 50% and negative numbers occur (in some assays of this library far below -100). Compounds were drawn at random from those tested, without regard to their results. Two or more numbers in one place are separate tests of the same structure; such repeats can differ widely.

| SMILES | TcHisRS | CoaBC |
|---|---|---|
| `COCC(C)NC(=O)NCCCc1cc(N)n(-c2ccccc2)n1` (stereo unspecified) | 6.748 | 2.177 |
| `Cc1cc(CNCC2(O)CCOCC2)ccc1F` | 8.642 | 0.8589 |
| `O=C(NC1CCOCC1)C1CC(=O)N(Cc2ccccn2)C1` (stereo unspecified) | 0 | 5.263 |
| `Cc1noc(C)c1CN(C)C(=O)c1cnc(C2CC2)nc1O` | 1.093 | 16.87 |
| `Cc1ccc(CNCC(C)Oc2ccccn2)cc1` (stereo unspecified) | 0.5848 | 5.303 |
| `COC1CCN(C(=O)c2csc(-c3ccccc3F)n2)CC1` | 3.191 | -4.555 |
| `O=C(NCCOc1ncc(Cl)cc1Cl)c1ccncc1F` | 4.813 | -2.277 |
| `COc1ccc(C(C)n2ccnc2-c2cc3n(n2)CCCNC3)cc1F` (stereo unspecified) | 4.167 | -2.801 |
| `O=C1CCCN1Cc1ncn2c1CN(C(=O)c1cccc(F)c1)CCC2` | 0.8475 | 9.692 |
| `Cn1ccnc1CN1CCC(F)(F)C2(CCN(c3cccnc3)C2)C1` (stereo unspecified) | 11.64 | 5.679 |
| `CCCS(=O)(=O)N1CCC2(CCC(=O)N(CCc3cccnc3)C2)CC1` | 12.05 | 0.2475 |
| `CCN1CCN(C(=O)c2cc(C(F)(F)F)n[nH]2)[C@H]2CS(=O)(=O)C[C@H]21` | 7.317 | -1.899 |
| `COCCNC(=O)Nc1cc2c(cc1SC)OCCO2` | 5.435 | 1.411 |
| `Cc1cccc(C(=O)N2C[C@@H]3[C@H](CC(=O)Nc4cccnc4)[C@@H]3C2)n1` | 5.825 | 5.089 |
| `COc1cccc(CNC(=O)CC2CSc3nc(C)c(C)c(=O)n32)c1` (stereo unspecified) | 10.55 | -0.1203 |
| `CN(Cc1nccn1C)C(=O)c1cccc(CCC(C)(C)O)c1` | -1.117 | 1.799 |
| `CN1CCC(N[C@@H]2CO[C@H](CNC(=O)c3cccs3)[C@H]2O)CC1` | 11.88 | 0.2257 |
| `CN(Cc1cccc(-n2cccn2)c1)Cc1cccs1` | 6.818 | 3.64 |
| `CC(C)N1[C@H](CN(C)C)C[C@@H]2CN(c3ncc(F)cn3)CC[C@@H]21` | 5.882 | -33.33 |
| `CC(C)CC1SCC(=O)Nc2c1cnn2-c1ccc(F)cc1` (stereo unspecified) | -3.825 | 3.365 |
| `CCOC(=O)c1ccc(S(=O)(=O)NCc2cccnc2N(C)C)cc1` | 4 | -0.5249 |
| `Cc1noc(NC(=O)c2cccc(Br)c2)n1` | 0.578 | -3.259 |
| `CN(Cc1cnn(C)c1)S(=O)(=O)N1CCCCC1` | 4.255 | 10.2 |
| `CC(C)OCCSCCn1nc2ccccn2c1=O` | 1.031 | -5.896 |
| `Cc1noc(C)c1CC(=O)N1CCCC(c2noc(C(C)C)n2)C1` (stereo unspecified) | 3.448 | 3.165 |
| `O=C(c1cnccn1)N1CCC2(CCN(Cc3ccsc3)CC2)CC1` | 7.619 | -2.589 |
| `CCCS(=O)(=O)N1C[C@H]2C[C@H](C(=O)N3CCOCC3)[C@@H](C1)O2` | 8.738 | -0.1287 |
| `CNC(=O)[C@H]1C[C@H]2OCC[C@H]2N(Cc2cccc3ccccc23)C1` | 4.348 | 1.648 |
| `O=C(NC1CCCN(c2ncccn2)C1)c1cn2ccccc2n1` (stereo unspecified) | 4.082 | 0.6242 |
| `O=C(c1cccnc1O)N1CCCN(c2cccnn2)CC1` | 0 | 7.559 |
| `CC(C(=O)N1CCc2ccccc2C1)n1cc(Br)cn1` (stereo unspecified) | 0 | 1.364 |
| `O=C(NCc1cccc(C(F)(F)F)c1)C(c1cccnc1)N1CCCC1` (stereo unspecified) | 9.74 | -3.265 |
| `CCCc1cc(C(=O)N2CCOC(c3nc(-c4cccs4)no3)C2)no1` (stereo unspecified) | -2.151 | -0.1309 |
| `CCNS(=O)(=O)C1CCN(C(=O)c2ccc(CC)o2)C1` (stereo unspecified) | -1.064 | 12.36 |
| `Cc1ccc(CNC2CCc3nc(C(C)C)nn3C2)o1` (stereo unspecified) | 5.528 | -1.083 |
| `CN(CC(=O)N(C)C1CCCCC1)Cc1nc2ccccc2c(=O)[nH]1` | 7.303 | 8.249 |
| `CCn1ccnc1C1CCN(c2ncnc3ccsc23)CC1` | 0.5405 | 13.64 |
| `O=C1NC2(CCN(Cc3cccnc3)CC2)CC1c1ccncc1` (stereo unspecified) | 2.732 | 0.6435 |
| `FC(F)(F)c1n[nH]c2c1CN(CCc1ccccn1)CC2` | -0.8403 | 8.065 |
| `COCCN1C(=O)[C@]2(CC[C@@H]3CN(C(=O)NC4CCCC4)C[C@@H]32)N=C1C` | -1.622 | 4.949 |
| `CS(=O)(=O)NCC1CCCN(C(=O)COc2ccc(F)cc2)C1` (stereo unspecified) | -3.053 | 5.181 |
| `COc1cccc(N2CCN(C(=O)C(C)Oc3ccccc3)CC2=O)c1` (stereo unspecified) | -3.333 | 6.349 and 22.53 |
| `Cc1n[nH]c(C)c1C1COCCN1C(=O)c1cccc(F)c1F` (stereo unspecified) | 3.812 | 0.5263 |
| `Cc1cnn(CC2CCCN2Cc2nc3ccccc3n2C)c1` (stereo unspecified) | 6.015 | 2.571 |
| `Cc1ncc(-c2ccnc(N3CCCCC3)n2)c(=O)[nH]1` | 1.132 | 4.042 |
| `CC(C)c1nnc2n1CCN(CCC(=O)Nc1sccc1C#N)C2` | 4 | 3.345 |
| `O=C(NCc1ccc2c(c1)OCCO2)N1CCC(CO)CC1` | 6.627 | 7.683 |
| `Cc1c(C(C)NC(=O)Nc2ccccc2F)cnn1C` (stereo unspecified) | 3.933 | -4.628 |